Source: US20140127212A1

What was measured:
Assay in all cases: condition: competitor series starting at approximately 1000:1 over biotinylated human IgE; DELFIA epitope competition; no inhibition of biotinylated IgE binding to immobilised antibody
[1] = target: purified human IgD (Calbiochem) (human)
[2] = target: purified human IgG (Calbiochem) (human)
[3] = target: purified human IgM (Calbiochem) (human)
[4] = target: purified human IgA (Calbiochem) (human)

Measured: binding

B1: Antibody 1 IgG (antibody, V domains shown)
VH: QVQLVQSGAEVKKPGATVKLSCKVYGYIFTDYNIYWVRQAPGKGLEWMGLIDPDNGETFYAEKFQGRATMTADTSSDRAYMELTSLTFEDTATYYCATVLHRRLKGGYDYWGRGTLVTVSS
VL: QSVLTQPPSVSGAPGQRVTISCTGSSSNIGAGYDVHWYQQLPGTAPKLLIYDNFNRPSGVPDRFSGSKSGTSASLAIIGLQTEDEADYYCQSYDSSLSGSLFGTGTKLTVL
no binding: all assays above

These are yes or no findings as the source states them, for the method shown.
